Experimental data: PubChem BioAssay AID1159584 (Peter MacCallum Cancer Centre, 2016)
The deposit covers about 18,000 reagents; below is a part drawn at random. Not stated in the record: the amount of reagent, the time to read-out.

Assay: 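Genes that CDH1-null MCF10A cells selectively depend on to survive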 (primary screen)
Cells: human MCF10A breast epithelial cells, parental and CDH1-null
Knock-down reagent: siRNA against human genes
Measurement: 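Cell viability by CellTiter-Glo ATP luminescence, each line scaled to the mean of mock wells across plates, then CDH1-null over parental ratio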
Scale: CDH1-null / parental viability ratio: higher = CDH1-null cells survive relatively better than parental; CDH1-null viability vs mock: higher = more viable CDH1-null cells; parental viability vs mock: higher = more viable parental cells

no.	gene symbol	CDH1-null / parental viability ratio	CDH1-null viability vs mock (fraction of mock)	parental viability vs mock (fraction of mock)
1	TBATA	1	0.82	0.82
2	GGA1	1.39	0.75	0.54
3	BAMBI	0.87	0.45	0.52
4	TMEM161B	0.86	0.86	1
5	SLC31A2	0.98	0.61	0.62
6	CALML3	1.08	0.65	0.6
7	MTRR	0.93	0.86	0.92
8	MAGED4B	1.04	0.94	0.9
9	ZFP3	1	1	1
10	PNRC2	1.13	1.04	0.92
11	FBXL22	0.88	0.6	0.68
12	ILF3	1.06	0.87	0.82
13	UBXN2A	0.88	0.69	0.78
14	NTHL1	0.76	0.68	0.9
15	UBQLN3	0.92	1.06	1.15
16	N4BP3	1.19	0.74	0.62
17	PSG7	0.95	0.9	0.95
18	PRR18	0.89	0.64	0.72
19	FRG1	0.79	0.73	0.92
20	KCNV2	1.33	0.88	0.66
21	TTYH1	1.23	1.01	0.82
22	MRPL32	0.58	0.54	0.93
23	HSD17B8	0.93	0.8	0.86
24	DOCK8-AS1	1.19	1.01	0.85
25	OR11H12	0.94	0.47	0.5
26	NIFK	1.04	0.52	0.5
27	PZP	0.98	0.51	0.52
28	HNF4G	0.91	0.96	1.06
29	ZRANB2	0.8	0.6	0.75
30	JAKMIP1	0.93	0.83	0.89
31	CRCP	1.34	1.15	0.86
32	MSN	0.75	0.66	0.88
33	CA6	1.01	0.76	0.75
34	SLC13A2	1.1	0.74	0.67
35	AIF1	1.13	1.04	0.92
36	SDR39U1	1.06	0.73	0.69
37	OAS3	0.91	0.86	0.94
38	MOCOS	1.04	1.1	1.06
39	MAGIX	0.81	0.46	0.57
40	GINS2	0.75	0.48	0.64
41	ADGRF4	1.33	0.88	0.66
42	USP15	1.13	0.68	0.6
43	TEX261	1.12	0.94	0.84
44	CCIN	1.04	0.83	0.8
45	TMEM47	1.21	1.02	0.84
46	PROCA1	0.71	0.5	0.7
47	ZNHIT6	1	0.89	0.89
48	DPYSL5	1	1	1
49	PSMB5	1.17	0.47	0.4
50	SMIM29	0.9	0.76	0.84
51	PIP4K2C	1.01	0.86	0.85
52	KCNK9	1.07	0.88	0.82
53	OPN1LW	0.76	0.74	0.98
54	ERBB2	1.11	0.98	0.88
55	OSBPL9	1.1	0.8	0.73
56	NDUFAF6	0.95	1.05	1.11
57	FUT7	0.98	0.92	0.94
58	LYRM7	1.03	0.74	0.72
59	LMAN1L	0.79	0.46	0.58
60	GPR17	0.95	0.61	0.64
61	ZWILCH	1.04	1.02	0.98
62	CACNA1F	1.35	0.62	0.46
63	ZNF23	1.06	0.7	0.66
64	DEFA4	1.03	0.64	0.62
65	DMBT1	1.34	1.02	0.76
66	PRSS50	1.17	0.54	0.46
67	MEOX2	0.99	0.89	0.9
68	FCHO1	0.78	0.45	0.58

Sorted by “CDH1-null viability vs mock (fraction of mock)” (high to low): 5 of the entries above.
gene symbol	CDH1-null / parental viability ratio	CDH1-null viability vs mock (fraction of mock)	parental viability vs mock (fraction of mock)
DOCK8-AS1	1.19	1.01	0.85
HSD17B8	0.93	0.8	0.86
MRPL32	0.58	0.54	0.93
NIFK	1.04	0.52	0.5
OR11H12	0.94	0.47	0.5
